# According to PubChem BioAssay AID1671190 (National Center for Advancing Translational Sciences (NCATS), 2021):
# By UniProt entry, the sequences of proteins in these tests, tags left out. Where a name states a change or a piece, a line headed by the entry shows the natural chain unless it says otherwise.
# UniProt P18054: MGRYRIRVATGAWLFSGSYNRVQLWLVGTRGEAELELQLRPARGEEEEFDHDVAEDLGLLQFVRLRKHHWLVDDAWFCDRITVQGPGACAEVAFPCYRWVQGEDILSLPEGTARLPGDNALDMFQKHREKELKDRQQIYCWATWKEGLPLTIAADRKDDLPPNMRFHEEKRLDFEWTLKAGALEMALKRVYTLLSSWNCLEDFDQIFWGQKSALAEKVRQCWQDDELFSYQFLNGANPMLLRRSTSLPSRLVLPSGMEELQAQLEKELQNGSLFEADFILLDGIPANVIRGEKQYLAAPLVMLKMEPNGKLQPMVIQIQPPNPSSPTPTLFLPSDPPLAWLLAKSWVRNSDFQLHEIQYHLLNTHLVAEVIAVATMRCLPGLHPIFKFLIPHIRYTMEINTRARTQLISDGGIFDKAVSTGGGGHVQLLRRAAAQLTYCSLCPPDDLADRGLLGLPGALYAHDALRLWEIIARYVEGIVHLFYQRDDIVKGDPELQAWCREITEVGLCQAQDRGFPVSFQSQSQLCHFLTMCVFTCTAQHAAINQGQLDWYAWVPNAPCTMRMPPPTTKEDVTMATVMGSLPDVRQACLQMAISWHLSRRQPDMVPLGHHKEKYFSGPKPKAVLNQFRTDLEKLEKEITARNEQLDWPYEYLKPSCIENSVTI
# In all, about 580,000 compounds went through this assay and about 6,100 (1.1%) were called active. Inconclusive results, whose numbers are uncertain, are shown with a selection of clear calls. Calls follow the shape of the dose curve; as a rule, active = well fitted inhibition curve with a large enough effect; inconclusive = small, poorly fitted or top-dose-only effect, or another doubt; inactive = no such curve, though single readings can be large or run the other way. A potency beside an inconclusive call is a rough fit, not a confirmed value.
# Target: Polyunsaturated fatty acid lipoxygenase ALOX12 (Homo sapiens) (UniProt P18054)
# Experiment: Primary qHTS assay for inhibitors of human arachidonate 12S-lipoxygenase (ALOX12): Round 2
# Details: purified 12hLO, xylenol orange hydroperoxide absorbance; series mostly up to 108 µM
# How it was run: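 Hydroperoxide product was detected by ferrous iron/xylenol orange as the 573 to 405 nm absorbance ratio. Arachidonic acid at 40 uM (final) was turned over for 30 min at room temperature by 150 nM human 12hLO, pH 7.0 Hepes buffer, after 15 min compound preincubation.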
# Potency is read from the fitted curve at half-maximal effect.
row,Structure (SMILES),Potency
1,CC(C)CN1C(=O)C2(CC(=O)Nc3c2cnn3Cc2ccccc2Cl)c2ccccc21 (stereo not given),inactive
2,CC(NCc1ccc(-c2ccc(F)cc2)o1)c1ccccc1 (stereo not given),"inconclusive: 44.7 µM [inhibitor, partial curve, poor fit]"
3,COc1ccccc1CN1CCSCC1,"inconclusive: 0.355 µM [inhibitor, full curve, poor fit]"
4,COc1ccc(NC(=O)CN(C)S(=O)(=O)c2ccc3c(c2)CCCN3C(C)=O)cc1Cl,inactive
5,COc1ccc(NC(=O)CSc2nc3ccccc3o2)cc1,"inconclusive: 3.55 µM [inhibitor, full curve, poor fit]"
6,O=C(NCC(F)(F)F)c1cc(-c2ccc3c(c2)OCCO3)nc2ccccc12,inactive
7,CCN(CC)CCNC(=O)c1cc(C(C)(C)C)cc(C(C)(C)C)c1,"inconclusive: 20 µM [inhibitor, partial curve, poor fit]"
8,CN1CCN(c2ccc(S(=O)(=O)N3CCCCC3)cc2[N+](=O)[O-])CC1,"inconclusive: 22.4 µM [inhibitor, full curve, poor fit]"
9,Cc1cccc2sc(N(Cc3cccnc3)C(=O)Cc3ccccc3)nc12,"inconclusive: 158 µM [inhibitor, partial curve, poor fit]"
10,CC(C)Oc1cccc(C(=O)Nc2ccc(-c3nc4cc(Cl)cc(Cl)c4o3)cc2)c1,"inconclusive: 141 µM [inhibitor, single point]"
11,COC(=O)CC(NC(=O)c1cccc(CS(C)(=O)=O)c1)c1ccc(F)cc1 (stereo not given),inactive
12,CCC(c1nnnn1CCc1ccccc1)N1CCN(C(=O)c2ccco2)CC1 (stereo not given),"inconclusive: 31.6 µM [inhibitor, partial curve, poor fit]"
13,O=P(O)(CCCP(=O)(O)CCc1ccccc1)CCc1ccccc1,inactive
14,C=CCCC(CN1CCSCC1)Oc1cc(CC)nc(C)n1 (stereo not given),inactive
15,C=CCC1CCCC(=O)N2CCCC12 (stereo not given),inactive
16,Cc1ccc(NC(=O)CSc2nc(-c3cccs3)cc(C(F)(F)F)n2)cc1C,inactive
17,CCc1noc(C)c1C(=O)Nc1sc(Cc2ccccc2)cc1C(N)=O,"inconclusive: 39.8 µM [inhibitor, partial curve, poor fit]"
18,CC1CCc2c(nc3ccc4ccccc4c3c2-c2ccccc2O)C1 (stereo not given),"inconclusive: 10 µM [inhibitor, partial curve, poor fit]"
19,CCOC(=O)[C@H]1[C@H]2COc3ccc(Br)cc3[C@@H]2N2C(=O)c3cc(Br)ccc3NC(=O)[C@@]12C,inactive
20,CC1CCCCC1NC(=O)CSc1nnc(-c2ccco2)n1C (stereo not given),"inconclusive: 89.1 µM [inhibitor, single point]"
21,CCOC(=O)c1c(NC(=O)CSc2nnnn2-c2ccccc2OCC)sc2c1CC(C)(C)NC2(C)C,inactive
22,COc1ccc(Cl)cc1Nc1nc(-c2sc(NC(=O)C(C)(C)C)nc2C)cs1,"inconclusive: 44.7 µM [inhibitor, partial curve, poor fit]"

row,Structure (SMILES),Potency
1,Cc1ccc(C(=O)Nc2ccc(-c3nc4ccccc4s3)cc2)c(C)c1,inactive
2,CCCNC(=O)c1ccc(Cn2c(=S)[nH]c3c([nH]c4ccc(OC)cc43)c2=O)cc1,inactive
3,COc1ccc(S(=O)(=O)N(CCc2ccccc2)CC(=O)Nc2cc(C)ccc2C)cc1,"inconclusive: 100 µM [inhibitor, single point]"
4,CC(C)(C)[C@H]1COC(=O)[C@H](Cc2ccc(F)cc2)CC/C=C/C[C@@H](CC(=O)N[C@H](CO)Cc2ccccc2)C(=O)N1,"inconclusive: 79.4 µM [inhibitor, partial curve, poor fit]"
5,Cc1ccc(CNC(=O)c2cnc3ccccc3n2)cc1,"inconclusive: 44.7 µM [inhibitor, partial curve, poor fit]"
6,Cc1cccc(NC(=O)c2oc3ccc(S(=O)(=O)N4CCOCC4)cc3c2C)c1C,inactive
7,CCc1ccc(NC(=O)C2CCN(S(=O)(=O)c3c(C)noc3/C=C/c3cccs3)CC2)cc1,inactive
8,C[N+](C)(C)CC(C[N+](C)(C)C)OCc1ccccc1,"inconclusive: 1.78 µM [inhibitor, full curve, poor fit]"
9,Cc1ccccc1N1CCN(C(=S)c2ccc(-c3ccc([N+](=O)[O-])cc3)o2)CC1,"inconclusive: 4.47 µM [inhibitor, full curve, poor fit]"
10,CSc1nc2ccccc2c(=O)n1CC(=O)c1cc(C)c(C)cc1C,"inconclusive: 79.4 µM [inhibitor, partial curve, poor fit]"
11,O=C(c1ccc(F)cc1)N1CCN(Cc2ccccc2Br)CC1,"inconclusive: 1.78 µM [inhibitor, full curve, poor fit]"
12,CC1CC(Nc2ccccc2N)=CC(=O)O1 (stereo not given),inactive
13,CCOC(=O)C1(CCOc2ccccc2)CCN(Cc2cccc(OC)c2O)CC1,active: 7.08 µM
14,N#Cc1c(-c2ccccc2)cc(-c2cccs2)nc1SCS(=O)Cc1ccccc1 (stereo not given),"inconclusive: 20 µM [inhibitor, full curve, poor fit]"
15,CCCNC(=O)c1cc2c(c(-c3cccc(-c4ccc(F)cc4)c3)n1)[C@@H](CCO)N(S(=O)C(C)(C)C)C2 (stereo not given in full),"inconclusive: 79.4 µM [inhibitor, partial curve, poor fit]"
16,O=C(Nc1ccc(N2CCC(c3ccccc3)C2)c(C(=O)O)c1)c1cccc(Cl)c1 (stereo not given),"inconclusive: 50.1 µM [inhibitor, partial curve, poor fit]"
17,COc1cccc(-c2nc(C(N)=O)c3[nH]c(=O)n(-c4ccccc4)c3n2)c1OC,"inconclusive: 126 µM [inhibitor, single point]"
18,COC(=O)Cc1ccc(NC(=S)NCc2ccc(OC)cc2)cc1,"inconclusive: 79.4 µM [inhibitor, partial curve, poor fit]"
19,Cc1ccccc1S(=O)(=O)Oc1cccc2c(O)cccc12,"inconclusive: 44.7 µM [inhibitor, partial curve, poor fit]"
20,COc1ccc(OC)c(NP2(=O)OCC(C)([N+](=O)[O-])CO2)c1 (stereo not given),"inconclusive: 56.2 µM [inhibitor, partial curve, poor fit]"
21,O=C(CC(c1cccc(F)c1)n1cccc1)Nc1ccc2c(c1)OCO2 (stereo not given),"inconclusive: 2.82 µM [inhibitor, full curve, poor fit]"
22,COc1ccc(CNC(=O)c2ccc3c(c2)NC(=O)C(CS(=O)(=O)Cc2ccccc2Cl)N3)cc1 (stereo not given),"inconclusive: 35.5 µM [inhibitor, partial curve, poor fit]"

# A few values from the list.
# Value of `CC(C)(C)[C@H]1COC(=O)[C@H](Cc2ccc(F)cc2)CC/C=C/C[C@@H](CC(=O)N[C@H](CO)Cc2ccccc2)C(=O)N1` under Potency: inconclusive: 79.4 µM [inhibitor, partial curve, poor fit]
# Value of `Cc1ccc(C(=O)Nc2ccc(-c3nc4ccccc4s3)cc2)c(C)c1` under Potency: inactive
# Value of `CC1CC(Nc2ccccc2N)=CC(=O)O1` (stereo not given) under Potency: inactive
# Value of `COc1ccc(OC)c(NP2(=O)OCC(C)([N+](=O)[O-])CO2)c1` (stereo not given) under Potency: inconclusive: 56.2 µM [inhibitor, partial curve, poor fit]

# Later entries:

row,Structure (SMILES),Potency
1,C[N+](C)(C)CCCNC(=O)c1ccc(/C=N/O)nc1,"inconclusive: 44.7 µM [inhibitor, partial curve, poor fit]"
2,Cc1nc(N2CCN(c3ccccn3)CC2)c2c(C)c(C(=O)Nc3c(F)cc(F)cc3Br)sc2n1,inactive
3,Cc1nc2ccc(S(=O)(=O)N(CC(=O)Nc3ccc(Cl)cc3)Cc3ccccc3)cc2s1,inactive
4,O=C(NC[C@H]1O[C@@H](CO)[C@@H](O)[C@H]1N1CCN(c2ccc(F)cc2)CC1)c1cccs1,"inconclusive: 28.2 µM [inhibitor, full curve]"
5,Cc1cc(N2CCCC2)ccc1NC(=O)CN1C(=O)NC(C)(c2ccccc2)C1=O (stereo not given),"inconclusive: 44.7 µM [inhibitor, partial curve, poor fit]"
6,COc1ccc(Oc2ncc3nc(C)c(=O)n(CCC#N)c3n2)cc1,"inconclusive: 79.4 µM [inhibitor, partial curve, poor fit]"
7,CCOC(=O)c1cccc(NS(=O)(=O)c2c(C)nc3sc(C)cn3c2=O)c1,inactive
8,O=C(c1ccncc1)N1CCC2(CCCN(c3ccc(-c4ccccc4)cc3)C2)CC1,"inconclusive: 31.6 µM [inhibitor, single point]"
9,CN1CC(=O)N(C2CCCNC2)Cc2c1ncnc2N1CCOCC1 (stereo not given),"inconclusive: 14.1 µM [inhibitor, full curve]"
10,COc1ccc(Nc2nccc3c2cc(-c2cccc(F)c2)n3C)cc1OC,"inconclusive: 141 µM [inhibitor, partial curve, poor fit]"
11,COC(=O)c1cc(NC(=O)c2cnn3cccnc23)cc(C)c1C,"inconclusive: 141 µM [inhibitor, partial curve, poor fit]"
12,CCCCn1c(=N)n(CC(=O)c2ccc([N+](=O)[O-])cc2)c2ccccc21,"inconclusive: 50.1 µM [inhibitor, partial curve, poor fit]"
13,O=C(CCSCCC(=O)NCc1ccco1)NCc1ccco1,inactive
14,C[C@@]1(O)CCN(Cc2cn[nH]c2-c2ccccc2)C[C@H]1N1CCCC1,inactive
15,COc1ccccc1-c1nc(N2CCOCC2)cc2c1CN(Cc1cnn(C)c1)C2=O,inactive
16,NC(=S)NNc1c(F)c(F)c(F)c(F)c1F,inactive
17,C[C@H]1NC(=O)[C@@]2(C)[C@H](c3ccccc3)[C@H]3COc4ccccc4[C@@H]3N2C1=O,"inconclusive: 89.1 µM [inhibitor, single point]"
18,COC(=O)c1ccc(CNC(=O)C2CC2)cc1,inactive
19,O=C(CCN1C(=O)/C(=C\c2cccs2)SC1=S)Nc1ccc(C(=O)O)cc1,"inconclusive: 50.1 µM [inhibitor, partial curve, poor fit]"
20,C[C@H](CO)N1C[C@H](C)[C@H](CN(C)C(=O)Nc2cccc(F)c2)Oc2cc(C#CC3(O)CCCC3)ccc2S1(=O)=O,"inconclusive: 44.7 µM [inhibitor, single point]"
21,O=C(O)c1ccc(CS(=O)c2ccc(F)cc2)o1 (stereo not given),"inconclusive: 56.2 µM [inhibitor, partial curve, poor fit]"
